From article PMC7509050 come the findings set out here.

Construct, isoform or probe ends are uncertain for at least one entry.

The data set relates to YeeY (Aeromonas hydrophila). In words: EMSA. The settings on record: 10x unlabeled probe used as competitor, EMSA binding buffer listed as (stocks) 1 M Tris-HCl pH 7.5, 5 M NaCl, 1 M KCl, 1 M MgCl2, 0.5 M EDTA pH 8.0, 10 mg/mL BSA, 30 min at 4 C in the dark, PAGE, recombinant protein.

Consider “TAGCATGTCGCTGCTTTATTCGCCTGAGGAACCGGGCTACCGGCATGACCGGGCACCAATAATAAGAA (double strand) [PAHA_4275 promoter probe]”, for which the binding result is “binds”.

With “GCTATTTAAACTCTGCCCACCAGCTTGCATACTGGTGGGCAGCGTCTTTTGAGGGGAATAACA (double strand) [PAHA_3222 promoter probe]”, where the note is “label: 5'-Cy5 on strand 1”, the binding result was “binds”.
